Measured values as given in paper doi:10.1101/2023.05.10.540295.
No constants are given. Whether binding was seen depends on the method and setting. In cells and extracts the contact can be indirect. Some binding calls cover weakened binding; strength is not graded here.

The chains behind the UniProt entries cited, without tags or fusion partners. Where a name states a change or a piece, a line headed by the entry shows the natural chain unless it says otherwise. A line that says so, or that is headed by a name, gives the form on record, which may keep a tag or linker.
UniProt Q96IY1: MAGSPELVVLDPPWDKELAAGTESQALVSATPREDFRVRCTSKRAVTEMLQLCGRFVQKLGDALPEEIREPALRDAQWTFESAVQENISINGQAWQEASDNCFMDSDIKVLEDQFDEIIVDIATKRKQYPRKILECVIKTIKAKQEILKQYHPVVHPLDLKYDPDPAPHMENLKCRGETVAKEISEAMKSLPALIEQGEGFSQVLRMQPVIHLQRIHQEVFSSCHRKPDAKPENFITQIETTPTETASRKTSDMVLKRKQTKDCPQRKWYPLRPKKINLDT
GFP-NSL1^2TD (Q96IY1, form named): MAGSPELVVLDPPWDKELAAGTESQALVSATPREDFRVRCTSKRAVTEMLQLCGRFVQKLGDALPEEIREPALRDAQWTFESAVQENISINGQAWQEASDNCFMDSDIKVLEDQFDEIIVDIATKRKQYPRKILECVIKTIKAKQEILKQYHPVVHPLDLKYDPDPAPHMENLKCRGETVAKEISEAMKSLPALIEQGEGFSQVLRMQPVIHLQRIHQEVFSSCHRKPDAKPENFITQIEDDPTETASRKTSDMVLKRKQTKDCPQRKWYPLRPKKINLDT
GFP-NSL1^2TA (Q96IY1, form named): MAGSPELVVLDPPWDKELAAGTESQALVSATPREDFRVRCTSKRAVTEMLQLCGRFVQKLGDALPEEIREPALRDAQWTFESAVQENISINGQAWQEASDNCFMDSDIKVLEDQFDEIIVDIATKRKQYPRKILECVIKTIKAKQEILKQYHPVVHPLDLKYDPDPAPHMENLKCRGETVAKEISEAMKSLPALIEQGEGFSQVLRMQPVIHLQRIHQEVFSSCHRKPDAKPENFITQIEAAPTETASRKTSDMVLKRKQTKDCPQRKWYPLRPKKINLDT
UniProt O14777: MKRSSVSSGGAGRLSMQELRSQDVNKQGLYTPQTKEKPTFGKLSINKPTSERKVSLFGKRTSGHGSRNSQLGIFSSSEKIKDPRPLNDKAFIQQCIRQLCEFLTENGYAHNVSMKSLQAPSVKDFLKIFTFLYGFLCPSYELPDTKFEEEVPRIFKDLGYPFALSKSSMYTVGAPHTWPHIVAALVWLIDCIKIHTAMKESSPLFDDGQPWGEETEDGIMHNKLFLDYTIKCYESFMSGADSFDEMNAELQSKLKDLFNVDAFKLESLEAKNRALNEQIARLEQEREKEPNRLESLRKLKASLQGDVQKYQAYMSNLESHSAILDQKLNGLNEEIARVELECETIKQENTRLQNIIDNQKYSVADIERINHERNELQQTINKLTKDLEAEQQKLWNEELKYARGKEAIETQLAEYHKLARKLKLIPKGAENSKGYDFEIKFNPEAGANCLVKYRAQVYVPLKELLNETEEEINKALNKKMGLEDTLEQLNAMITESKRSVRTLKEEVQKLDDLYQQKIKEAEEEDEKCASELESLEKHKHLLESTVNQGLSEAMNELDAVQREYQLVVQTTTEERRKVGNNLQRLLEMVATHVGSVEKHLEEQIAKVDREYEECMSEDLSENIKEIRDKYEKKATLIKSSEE
UniProt Q8NG31: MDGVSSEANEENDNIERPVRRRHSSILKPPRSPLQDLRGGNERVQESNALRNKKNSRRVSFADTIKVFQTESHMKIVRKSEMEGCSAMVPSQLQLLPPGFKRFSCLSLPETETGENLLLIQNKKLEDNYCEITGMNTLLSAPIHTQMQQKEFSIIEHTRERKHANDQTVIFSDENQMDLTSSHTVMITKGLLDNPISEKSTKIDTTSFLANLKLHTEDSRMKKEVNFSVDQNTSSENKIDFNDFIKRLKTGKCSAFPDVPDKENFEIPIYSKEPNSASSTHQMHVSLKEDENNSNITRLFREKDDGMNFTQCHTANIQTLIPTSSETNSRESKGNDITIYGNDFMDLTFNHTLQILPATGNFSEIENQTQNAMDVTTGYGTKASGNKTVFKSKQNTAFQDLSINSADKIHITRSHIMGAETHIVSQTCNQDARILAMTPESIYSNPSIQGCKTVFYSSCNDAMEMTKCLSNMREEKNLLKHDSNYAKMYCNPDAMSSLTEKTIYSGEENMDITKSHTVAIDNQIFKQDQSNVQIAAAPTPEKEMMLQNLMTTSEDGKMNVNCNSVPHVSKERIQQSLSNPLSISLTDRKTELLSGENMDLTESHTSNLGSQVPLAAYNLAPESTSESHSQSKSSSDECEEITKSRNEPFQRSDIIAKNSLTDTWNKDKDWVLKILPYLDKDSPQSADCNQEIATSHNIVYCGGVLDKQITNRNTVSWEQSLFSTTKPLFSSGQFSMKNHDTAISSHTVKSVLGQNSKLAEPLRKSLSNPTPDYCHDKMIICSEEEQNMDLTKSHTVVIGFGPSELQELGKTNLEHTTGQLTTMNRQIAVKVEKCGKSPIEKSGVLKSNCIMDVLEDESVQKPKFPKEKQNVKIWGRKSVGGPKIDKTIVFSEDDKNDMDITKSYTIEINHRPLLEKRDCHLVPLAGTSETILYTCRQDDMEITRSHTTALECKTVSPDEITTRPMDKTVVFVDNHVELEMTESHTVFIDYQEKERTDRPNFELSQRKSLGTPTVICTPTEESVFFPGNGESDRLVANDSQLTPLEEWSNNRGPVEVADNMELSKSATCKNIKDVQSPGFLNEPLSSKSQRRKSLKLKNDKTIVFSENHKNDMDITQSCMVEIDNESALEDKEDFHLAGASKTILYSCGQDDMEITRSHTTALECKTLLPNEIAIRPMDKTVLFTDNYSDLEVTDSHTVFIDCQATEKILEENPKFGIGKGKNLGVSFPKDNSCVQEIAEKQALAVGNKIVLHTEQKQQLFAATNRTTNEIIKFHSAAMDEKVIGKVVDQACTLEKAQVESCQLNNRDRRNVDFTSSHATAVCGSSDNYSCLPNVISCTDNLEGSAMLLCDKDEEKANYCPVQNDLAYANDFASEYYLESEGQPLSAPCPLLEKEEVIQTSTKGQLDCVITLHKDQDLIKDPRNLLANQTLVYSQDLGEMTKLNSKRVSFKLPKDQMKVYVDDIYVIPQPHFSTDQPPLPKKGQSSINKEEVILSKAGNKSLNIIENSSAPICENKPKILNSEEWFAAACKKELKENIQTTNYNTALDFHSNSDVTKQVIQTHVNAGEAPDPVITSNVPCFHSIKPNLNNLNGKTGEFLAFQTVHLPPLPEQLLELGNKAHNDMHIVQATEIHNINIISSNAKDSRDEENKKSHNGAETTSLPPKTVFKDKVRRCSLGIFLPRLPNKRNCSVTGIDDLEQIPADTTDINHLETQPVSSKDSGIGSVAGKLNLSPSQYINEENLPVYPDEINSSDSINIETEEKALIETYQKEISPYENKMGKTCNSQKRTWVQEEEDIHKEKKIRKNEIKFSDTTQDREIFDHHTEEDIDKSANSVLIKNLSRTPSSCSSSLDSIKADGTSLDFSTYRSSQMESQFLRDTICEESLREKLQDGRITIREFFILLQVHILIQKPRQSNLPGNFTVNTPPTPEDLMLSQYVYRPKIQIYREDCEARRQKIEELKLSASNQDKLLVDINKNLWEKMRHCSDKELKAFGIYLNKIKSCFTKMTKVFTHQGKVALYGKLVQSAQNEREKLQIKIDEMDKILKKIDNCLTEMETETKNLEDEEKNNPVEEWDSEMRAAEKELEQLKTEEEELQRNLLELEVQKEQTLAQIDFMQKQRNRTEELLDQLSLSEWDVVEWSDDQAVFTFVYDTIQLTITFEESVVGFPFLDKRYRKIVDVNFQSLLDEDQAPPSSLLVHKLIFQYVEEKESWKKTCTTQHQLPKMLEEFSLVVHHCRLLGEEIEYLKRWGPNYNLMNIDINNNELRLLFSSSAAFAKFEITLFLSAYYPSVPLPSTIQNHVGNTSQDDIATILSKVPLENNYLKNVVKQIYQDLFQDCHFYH

Experiments:
Assay in all cases: co-IP
GFP-NSL1^WT (human) = GFP-NSL1^WT (human) (UniProt Q96IY1)
GFP-NSL1^Y270A (human) = GFP-NSL1^Y270A (human) (UniProt Q96IY1)
GFP-NSL1^2TD (human) = GFP-NSL1^2TD (human) (UniProt Q96IY1)
GFP-NSL1^2TA (human) = GFP-NSL1^2TA (human) (UniProt Q96IY1)

Substance | binding (GFP-NSL1^WT (human)) | binding (GFP-NSL1^Y270A (human)) | binding (GFP-NSL1^2TD (human)) | binding (GFP-NSL1^2TA (human))
HEC1 (from UniProt O14777 1-642) | binds | no binding | – | –
KNL1 (from UniProt Q8NG31 1-2342) | binds | no binding | binds | binds
